Laboratory results reported in the supplement of paper PMC4604168 (melanoma cell lines).
This is one part of the list. Repeats are few or missing, and single values can be far off.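 Imaging used 1,536-well plates; nuclei positive for cleaved PARP by antibody were divided by total DNA-stained nuclei to yield the apoptosis fraction. Doses for screening kept most cells viable, and cell lines differ markedly in resting and induced cleaved-PARP levels.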

Key:
Experiment in all cases: cleaved PARP positive nuclei fraction relative to DMSO control; melanoma cells; higher = more apoptosis
Details in all cases: library dose: low library concentration; 72 h
MeWo = test system: MeWo
RPMI7951 = test system: RPMI7951
RVH-421 = test system: RVH-421
SkMel28 = test system: SkMel28
SkMel30 = test system: SkMel30
UACC62 = test system: UACC62
WM115 = test system: WM115
WM1716 = test system: WM1716
WM1745 = test system: WM1745
WM3526 = test system: WM3526
WM3619 = test system: WM3619
WM451Lu = test system: WM451Lu
SkMel5 = test system: SkMel5
UACC257 = test system: UACC257

Row | SMILES | cleaved PARP positive nuclei fraction (MeWo) | cleaved PARP positive nuclei fraction (RPMI7951) | cleaved PARP positive nuclei fraction (RVH-421) | cleaved PARP positive nuclei fraction (SkMel28) | cleaved PARP positive nuclei fraction (SkMel30) | cleaved PARP positive nuclei fraction (UACC62) | cleaved PARP positive nuclei fraction (WM115) | cleaved PARP positive nuclei fraction (WM1716) | cleaved PARP positive nuclei fraction (WM1745) | cleaved PARP positive nuclei fraction (WM3526) | cleaved PARP positive nuclei fraction (WM3619) | cleaved PARP positive nuclei fraction (WM451Lu) | cleaved PARP positive nuclei fraction (SkMel5) | cleaved PARP positive nuclei fraction (UACC257)
1 | C[C@]12O[C@H](C[C@]1(O)CO)n1c3ccccc3c3c4c(c5c6ccccc6n2c5c31)CNC4=O [Lestaurtinib] + Cn1nnc2c(C(N)=O)ncn2c1=O [temozolomide] (first compound 0.004 µM, partner dose 2 µM) | 29.9% | 53.4% | 77.6% | 99.7% | 225% | 177% | 68.2% | 34.6% | 106% | 92.3% | 91.9% | 230% | – | –
2 | C[As](C)SC[C@H](NC(=O)CC[C@H](N)C(=O)O)C(=O)NCC(=O)O [Darinaparsin] + Cn1cc(/C=C2\C(=O)Nc3cccnc32)c2ccccc21 [GW441756] (first compound 0.4 µM, partner dose 0.4 µM) | 187% | 166% | 94.8% | 114% | 72.9% | 162% | 53.2% | 84.2% | 103% | 248% | 71.2% | 75.1% | 145% | 209%
3 | N.N.[Cl][Pt][Cl] [cisplatin] + CCN(CC)CCCCNc1ncc2cc(-c3cc(OC)cc(OC)c3)c(NC(=O)NC(C)(C)C)nc2n1 [PD173074] (first compound 1.6 µM, partner dose 0.1 µM) | 35.3% | 133% | 150% | 215% | 30.3% | 97% | 48% | 73.6% | 97.2% | 51.2% | 91.8% | 25.8% | 72.6% | 54.7%
4 | Cn1cc(C2=C(c3cn(C4CCN(Cc5ccccn5)CC4)c4ccccc34)C(=O)NC2=O)c2ccccc21 [Enzastaurin] + N.N.[Cl][Pt][Cl] [cisplatin] (first compound 0.8 µM, partner dose 1.6 µM) | 57.6% | 153% | 118% | 74.2% | 70.5% | 175% | 114% | 113% | 110% | 50% | 188% | 47.3% | – | –
5 | O=c1[nH]nc(Sc2ncc([N+](=O)[O-])s2)n1-c1ccc2c(c1)OCCO2 + C[C@]12O[C@H](C[C@]1(O)CO)n1c3ccccc3c3c4c(c5c6ccccc6n2c5c31)CNC4=O [Lestaurtinib] (first compound 0.2 µM, partner dose 0.004 µM) | 110% | 137% | 45.9% | 18.6% | 111% | 102% | 95.6% | 140% | 103% | 88.6% | 94.4% | 83.2% | – | –
6 | C[As](C)SC[C@H](NC(=O)CC[C@H](N)C(=O)O)C(=O)NCC(=O)O [Darinaparsin] + O=C(Oc1ccc([N+](=O)[O-])cc1)N1CCC(C(O)(c2ccc3c(c2)OCO3)c2ccc3c(c2)OCO3)CC1 [JZL184] (first compound 0.4 µM, partner dose 1 µM) | 129% | 66.9% | 95.6% | 163% | 116% | 156% | 104% | 92% | 115% | 83.2% | 81.9% | 206% | 66% | 151%
7 | C[As](C)SC[C@H](NC(=O)CC[C@H](N)C(=O)O)C(=O)NCC(=O)O [Darinaparsin] + Oc1cc(-c2nc(-c3ccccc3)[nH]c2-c2ccncc2)ccc1Cl [L779450] (first compound 0.4 µM, partner dose 0.2 µM) | 107% | 123% | 93.5% | 141% | 29.2% | 127% | 175% | 50.2% | 124% | 60.2% | 101% | 137% | 29.4% | 91.9%
8 | Nc1ccn([C@@H]2O[C@H](CO)[C@@H](O)C2(F)F)c(=O)n1 [gemcitabine] + Cc1cc(SCc2sc(-c3ccc(C(F)(F)F)c(F)c3)nc2C)ccc1OCC(=O)O [GW0742] (first compound 0.0004 µM, partner dose 2 µM) | 101% | 83% | 115% | 162% | 78.5% | 110% | 170% | 215% | 125% | 100% | 155% | 70.3% | 81.8% | 180%
9 | O=C(Nc1cccc(Cl)c1)Nc1ncc(CCNc2ncnc3ccsc23)s1 + C/C(O)=C(\C#N)C(=O)Nc1cc(Br)ccc1Br [LFM-A13] (first compound 0.0008 µM, partner dose 2 µM) | 113% | 139% | 108% | 166% | 242% | 47.1% | 102% | 108% | 117% | 73.9% | 102% | 110% | 126% | 82.7%
10 | Cn1cc(C2=C(c3cn(C4CCN(Cc5ccccn5)CC4)c4ccccc34)C(=O)NC2=O)c2ccccc21 [Enzastaurin] + CC(C)(C)c1cnc(CSc2cnc(NC(=O)C3CCNCC3)s2)o1 [SNS-032] (first compound 0.8 µM, partner dose 0.01 µM) | 196% | 72.6% | 143% | 80.9% | 61.9% | 149% | 64.5% | 124% | 112% | 31.1% | 79.1% | 190% | 61.8% | 128%
11 | C[C@]12O[C@H](C[C@]1(O)CO)n1c3ccccc3c3c4c(c5c6ccccc6n2c5c31)CNC4=O [Lestaurtinib] + Cc1nc(Nc2ncc(C(=O)Nc3c(C)cccc3Cl)s2)cc(N2CCN(CCO)CC2)n1 [dasatanib] (first compound 0.004 µM, partner dose 0.004 µM) | 92.2% | 233% | 90.2% | 40.8% | 75.8% | 49.8% | 109% | 157% | 124% | 91.4% | 95.2% | 189% | – | –
12 | C[As](C)SC[C@H](NC(=O)CC[C@H](N)C(=O)O)C(=O)NCC(=O)O [Darinaparsin] + COc1cc(N2CCC(N3CCN(C)CC3)CC2)ccc1Nc1ncc(Cl)c(Nc2ccccc2S(=O)(=O)C(C)C)n1 [NVP-TAE684] (first compound 0.4 µM, partner dose 0.08 µM) | 67.2% | 133% | 80.1% | 74.1% | 54.7% | 38.4% | 163% | 71.3% | 125% | 82.4% | 148% | 252% | 31.2% | 144%
13 | C#Cc1cccc(Nc2ncnc3cc(OCCOC)c(OCCOC)cc23)c1 [erlotinib] + Cc1cc(SCc2sc(-c3ccc(C(F)(F)F)c(F)c3)nc2C)ccc1OCC(=O)O [GW0742] (first compound 0.8 µM, partner dose 2 µM) | 107% | 87.5% | 102% | 202% | 25.5% | 155% | 103% | 151% | 256% | 64.3% | 104% | 54.5% | 57.6% | 89.8%
14 | Cn1cc(C2=C(c3cn(C4CCN(Cc5ccccn5)CC4)c4ccccc34)C(=O)NC2=O)c2ccccc21 [Enzastaurin] + NC1(c2ccc(-c3nc4ccn5c(=O)[nH]nc5c4cc3-c3ccccc3)cc2)CCC1 [MK2206] (first compound 0.8 µM, partner dose 0.4 µM) | 160% | 117% | 59.1% | 46.2% | 56.8% | 96.5% | 135% | 68.6% | 115% | 86.1% | 115% | 73% | – | –
15 | C[C@]12O[C@H](C[C@]1(O)CO)n1c3ccccc3c3c4c(c5c6ccccc6n2c5c31)CNC4=O [Lestaurtinib] + C[As](C)SC[C@H](NC(=O)CC[C@H](N)C(=O)O)C(=O)NCC(=O)O [Darinaparsin] (first compound 0.004 µM, partner dose 0.4 µM) | 22.4% | 152% | 49.9% | 144% | 23.5% | 147% | 108% | 60.6% | 94.1% | 83% | 113% | 85.3% | – | –
16 | C[C@]12O[C@H](C[C@]1(O)CO)n1c3ccccc3c3c4c(c5c6ccccc6n2c5c31)CNC4=O [Lestaurtinib] + C[C@@H](Oc1cc(-c2cnn(C3CCNCC3)c2)cnc1N)c1c(Cl)ccc(F)c1Cl [Crizotinib] (first compound 0.004 µM, partner dose 0.2 µM) | 88.9% | 199% | 177% | 18.9% | 314% | 93.6% | 171% | 104% | 183% | 86.7% | 77.3% | 149% | – | –
17 | N.N.[Cl][Pt][Cl] [cisplatin] + C=CCn1c(=O)c2cnc(Nc3ccc(N4CCN(C)CC4)cc3)nc2n1-c1cccc(C(C)(C)O)n1 [MK1775] (first compound 1.6 µM, partner dose 0.02 µM) | 154% | 150% | 79.2% | 159% | 73.3% | 199% | 124% | 70.3% | 95.5% | 59.9% | 107% | 152% | 73% | 126%
18 | C=CCn1c(=O)c2cnc(Nc3ccc(N4CCN(C)CC4)cc3)nc2n1-c1cccc(C(C)(C)O)n1 + C/C(O)=C(\C#N)C(=O)Nc1cc(Br)ccc1Br [LFM-A13] (first compound 0.02 µM, partner dose 2 µM) | 109% | 203% | 47.6% | 94.8% | 66.2% | 195% | 82.5% | 104% | 124% | 75.6% | 127% | 161% | 61.2% | 94.3%
19 | CO[C@H]1C[C@@H]2CC[C@@H](C)[C@@](O)(O2)C(=O)C(=O)N2CCCC[C@H]2C(=O)O[C@H]([C@H](C)C[C@@H]2CC[C@@H](OCCO)[C@H](OC)C2)CC(=O)[C@H](C)/C=C(\C)[C@@H](O)[C@@H](OC)C(=O)[C@H](C)C[C@H](C)/C=C/C=C/C=C/1C [everolimus] + O=C(Oc1ccc([N+](=O)[O-])cc1)N1CCC(C(O)(c2ccc3c(c2)OCO3)c2ccc3c(c2)OCO3)CC1 [JZL184] (first compound 0.02 µM, partner dose 1 µM) | 118% | 120% | 123% | 576% | 39.6% | 389% | 192% | 104% | 106% | 97.2% | 151% | 659% | 86% | 409%

Numbers 13 through 14, reprinted for reference:
Row | SMILES | cleaved PARP positive nuclei fraction (MeWo) | cleaved PARP positive nuclei fraction (RPMI7951) | cleaved PARP positive nuclei fraction (RVH-421) | cleaved PARP positive nuclei fraction (SkMel28) | cleaved PARP positive nuclei fraction (SkMel30) | cleaved PARP positive nuclei fraction (UACC62) | cleaved PARP positive nuclei fraction (WM115) | cleaved PARP positive nuclei fraction (WM1716) | cleaved PARP positive nuclei fraction (WM1745) | cleaved PARP positive nuclei fraction (WM3526) | cleaved PARP positive nuclei fraction (WM3619) | cleaved PARP positive nuclei fraction (WM451Lu) | cleaved PARP positive nuclei fraction (SkMel5) | cleaved PARP positive nuclei fraction (UACC257)
13 | C#Cc1cccc(Nc2ncnc3cc(OCCOC)c(OCCOC)cc23)c1 [erlotinib] + Cc1cc(SCc2sc(-c3ccc(C(F)(F)F)c(F)c3)nc2C)ccc1OCC(=O)O [GW0742] (first compound 0.8 µM, partner dose 2 µM) | 107% | 87.5% | 102% | 202% | 25.5% | 155% | 103% | 151% | 256% | 64.3% | 104% | 54.5% | 57.6% | 89.8%
14 | Cn1cc(C2=C(c3cn(C4CCN(Cc5ccccn5)CC4)c4ccccc34)C(=O)NC2=O)c2ccccc21 [Enzastaurin] + NC1(c2ccc(-c3nc4ccn5c(=O)[nH]nc5c4cc3-c3ccccc3)cc2)CCC1 [MK2206] (first compound 0.8 µM, partner dose 0.4 µM) | 160% | 117% | 59.1% | 46.2% | 56.8% | 96.5% | 135% | 68.6% | 115% | 86.1% | 115% | 73% | – | –
